Data reported in article PMC12472621, “Excavating Precursors from Herb Pairs Polygala tenuifolia and Acori tatarinowii: Synthesis and Anticonvulsant Activity Evaluation of 3,4,5-Trimethoxycinnamic Acid (TMCA) Piperazine Amide Derivatives” (Pharmaceuticals, 2025).
Values joined by “and” are separate entries in the source; they are usually repeats but may differ in a detail not shown here. Identical values can stand only once.

tested on: maximal electroshock (MES) induced seizures; assay: Maximal electroshock (MES) test; format: in vivo, mice; conditions: not given
Excerpt: Male Kunming mice (23–28 g) were maintained under controlled conditions with ad libitum access to standard pellet diet and water. Test compounds were formulated immediately prior to administration in normal saline containing 0.5% Tween-80. Our experiment was authorized by the Institutional Animal Care and Use Committee of Shaanxi University of Chinese Medicine (animal ethics certificate number: SUCMDL20210309027).
The MES test carried out following the method of Swinyard. A 60 Hz current (50 mA; 0.25 s duration) was delivered via corneal electrodes using a YSD-4G electro convulsion meter (Zhenghua Instruments, Huaibei, China, SN: ZH0056232). […] Test compounds were suspended in an identical vehicle. Protection was defined as abolition of tonic hindlimb extension.

Question: For `C/C=C/c1ccc(OC(=O)CCCN2CCN(C(=O)/C=C/c3cc(OC)c(OC)c(OC)c3)CC2)c(OC)c1` [A3, methoxy-4-((E)-prop-1-en-1-yl)phenyl 4-(4-((E)-3-(3,4,5-trimethoxyphenyl)acryloyl)piperazin-1-yl)butanoate], which “PI (MES), protective index (TD50/ED50)” value is on record?
Answer: The value was 6.05.

Question: With `COc1cc(/C=C/C(=O)N2CCN(CCCC(=O)N3CCN(C(c4ccc(F)cc4)c4ccc(F)cc4)CC3)CC2)cc(OC)c1OC` [A9, (E)-1-(4-(bis(4-fluorophenyl)methyl)piperazin-1-yl)-4-(4-(3-(3,4,5-trimethoxyphenyl)acryloyl)piperazin-1-yl)butan-1-one] as the compound, how does the “PI (MES), protective index (TD50/ED50)” value read?
Answer: Its value is 8.14.

Question: Which “PI (MES), protective index (TD50/ED50)” value does the source give for `COc1cc(/C=C/C(=O)N2CCN(CCCC(=O)N3CCN(c4cccc(Cl)c4Cl)CC3)CC2)cc(OC)c1OC` [A12, (E)-1-(4-(2,3-dichlorophenyl)piperazin-1-yl)-4-(4-(3-(3,4,5-trimethoxyphenyl)acryloyl)piperazin-1-yl)butan-1-one] here?
Answer: Its value is 5.20.

Question: For `COc1cc(/C=C/C(=O)N2CCN(CCCC(=O)N3CCN(c4ccc(C(F)(F)F)cc4)CC3)CC2)cc(OC)c1OC` [A14, (E)-1-(4-(4-(trifluoromethyl)phenyl)piperazin-1-yl)-4-(4-(3-(3,4,5-trimethoxyphenyl)acryloyl)piperazin-1-yl)butan-1-one], which “PI (MES), protective index (TD50/ED50)” value is on record?
Answer: Its value is 6.84.

Question: Which “PI (MES), protective index (TD50/ED50)” value does the source give for `COc1cc(/C=C/C(=O)N2CCN(C(=O)CCC(=O)N3CCN(C(c4ccc(F)cc4)c4ccc(F)cc4)CC3)CC2)cc(OC)c1OC` [B9, (E)-1-(4-(bis(4-fluorophenyl)methyl)piperazin-1-yl)-4-(4-(3-(3,4,5-trimethoxyphenyl)acryloyl)piperazin-1-yl)butane-1,4-dione] here?
Answer: The value was 9.97.

Question: Which “PI (MES), protective index (TD50/ED50)” value does the source give for `COc1cc(/C=C/C(=O)N2CCN(C(=O)CCC(=O)N3CCN(c4cccc(Cl)c4Cl)CC3)CC2)cc(OC)c1OC` [B12, (E)-1-(4-(2,3-dichlorophenyl)piperazin-1-yl)-4-(4-(3-(3,4,5-trimethoxyphenyl)acryloyl)piperazin-1-yl)butane-1,4-dione] here?
Answer: The value was 6.92.

tested on: maximal electroshock (MES) induced seizures; assay: not given; parameters: method as in PMID 31539780; conditions: reference drug; cited from earlier work

Question: With `CC(C)(C)C(O)/C=C/c1ccc2c(c1)OCO2` (stereo not shown) [STP, Stiripentol, reference compound] as the compound, how does the “PI (MES), protective index (TD50/ED50)” value read?
Answer: Its value is 1.74 and 1.41.
